This is one part of the list.

By UniProt entry, the sequences of proteins in these tests, tags left out.
UniProt Q0JBA9, entry or part of it: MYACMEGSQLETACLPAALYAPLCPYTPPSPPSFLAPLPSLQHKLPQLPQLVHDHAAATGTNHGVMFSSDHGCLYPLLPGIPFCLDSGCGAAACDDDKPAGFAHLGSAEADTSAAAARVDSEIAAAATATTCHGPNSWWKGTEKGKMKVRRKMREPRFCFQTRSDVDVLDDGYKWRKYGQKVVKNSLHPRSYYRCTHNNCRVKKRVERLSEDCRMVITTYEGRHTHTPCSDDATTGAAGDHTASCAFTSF

These results are taken from article PMC7819943, “Rice protein-binding microarrays: a tool to detect cis-acting elements near promoter regions in rice”.

The target in this assay is OsWRKY34 (Oryza sativa, UniProt Q0JBA9 1-250). Nature of the assay: protein-binding microarray (RPBM); PBS, 2% BSA, 51.3 ng/ul salmon testes DNA, 50 uM zinc acetate, 200 nM TF, 25 C, 1 h; high values mean tight binding. The conditions noted are these: protein: recombinant; tags: N-terminal polyhistidine and DsRed monomer fusion (pET32a); label: CyDye5-dUTP incorporated in the synthesized complementary strand; 3' TTTTT single-stranded linker to array surface; dsDNA, one strand shown. The method, boiled down: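 Polyhistidine-tagged DsRed fusions of transcription factors, joined at the N-terminus, were expressed in E. coli BL21-CodonPlus and isolated on Ni–NTA. They were incubated at 200 nM for 1 h at 25 °C on a custom Agilent array, double-stranded and BSA-blocked, in PBS with 2% BSA, salmon testes DNA and 50 µM zinc acetate. The binding signal is per-feature fluorescence intensity (arbitrary units) read on an Axon 4000B scanner after washing.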
For “AAATACTACCTCTGTTATATAATAGATGACGCTGTTGACTCGGAGTCACCTAGTGCAG”, the binding signal was 8900 fluorescence intensity (a.u.). Next, “GATTTTTTTTCTTATTTTGACCATACTGTCATGCACAACTCGGAGTCACCTAGTGCAG”: 10400 fluorescence intensity (a.u.); “ACCCTTCTTCTTCTTCTTCTTCTTCTTCTTCTTCCTCTGACGGAGTCACCTAGTGCAG”: 8690 fluorescence intensity (a.u.). For the sequence “CATAAGATTTGTTCTATGGATTGTTAGGCTGTGTTCCTCTCGGAGTCACCTAGTGCAG”, the binding signal was 9140 fluorescence intensity (a.u.).

For “TTGCAGGAAAATAGTACTACCTTCGTTTTTTTAATATGCACGGAGTCACCTAGTGCAG”, the binding signal was 8440 fluorescence intensity (a.u.). To “AACTTTACACCGAATCCGATTCGTCCTTATACCTCAAAGCCGGAGTCACCTAGTGCAG” belongs 8110 fluorescence intensity (a.u.); to “AAAAAAATCCATCCGTTGCGTCTTCAAATTCCATCCACGTCGGAGTCACCTAGTGCAG”, 8680 fluorescence intensity (a.u.); to “TGGAATACATACTTTCGGTGCAGATCCGACTTCTGCCTCACGGAGTCACCTAGTGCAG”, 8960 fluorescence intensity (a.u.). For “ATTTGATCTTTGGCAGTAAGTAATTCGGGGTTTGAAATTTCGGAGTCACCTAGTGCAG”, the binding signal was 9170 fluorescence intensity (a.u.). Next, “ATCCTTTGTTGCGTCGCGTCTCTCCACGGCCCCGAATCGCCGGAGTCACCTAGTGCAG”: 8330 fluorescence intensity (a.u.); “TACCGTCTAGCTTTTCTTTCTGAGTTTTCCGTTTTTCTAGCGGAGTCACCTAGTGCAG”: 11600 fluorescence intensity (a.u.). On to “TTCACGTTCAATGTTTGACCGTTCGTCTTATTTGAAAATTCGGAGTCACCTAGTGCAG”, for which the binding signal is 8550 fluorescence intensity (a.u.).

Take “TGATGGGGATATTTTGATGATTTAATCTTCTTTGATTCAACGGAGTCACCTAGTGCAG”: the binding signal was 9450 fluorescence intensity (a.u.). Next, “CCGTCGGCCCGCAGTCCATATGGCCTCTTCATCGGTCTCACGGAGTCACCTAGTGCAG”: 9140 fluorescence intensity (a.u.).

For “TACTTATATTTACTTGCAGATCAGTTGCCTGCCAATACCGCGGAGTCACCTAGTGCAG”, the binding signal is 8390 fluorescence intensity (a.u.). Turning to “CACATCTCGGTCCACTGAAGACCGCGTCCATCCGCGAATCCGGAGTCACCTAGTGCAG”, the binding signal is 11800 fluorescence intensity (a.u.).

On to “CTGTGGTTGGTTCTTGGGATCAGGTTCTCTGATTCTTGCTCGGAGTCACCTAGTGCAG”, for which the binding signal was 10300 fluorescence intensity (a.u.).

As for “TTCACTCTAGTCTCGGCTAAAAAAACGTTTGACCGGGTCACGGAGTCACCTAGTGCAG”, the binding signal was 8520 fluorescence intensity (a.u.).

With “ACCAACCATTTAAACAGCTGACATGTTAACATATGATAAACGGAGTCACCTAGTGCAG”, the binding signal is 8130 fluorescence intensity (a.u.). To “TCCAAGATCCGATTCCCCAACCACTGCTCAGTCGCCTAAACGGAGTCACCTAGTGCAG” belongs 8210 fluorescence intensity (a.u.); to “ACCAAATCTTTCGTCTGCGCATGAACTTCTTCTGAAATTTCGGAGTCACCTAGTGCAG”, 11000 fluorescence intensity (a.u.); to “GTTCAATTAATTCCCACCGTTGGTGATCCATGTTTTATATCGGAGTCACCTAGTGCAG”, 8940 fluorescence intensity (a.u.). For the sequence “CACTGTGTCGTGCTTCATCCATCTTAAAATAATCTTATCTCGGAGTCACCTAGTGCAG”, the binding signal was 8550 fluorescence intensity (a.u.). Next, “ATTTAAATTTTAGCTTATACTACCTCCGTCCCATTATAAGCGGAGTCACCTAGTGCAG”: 8220 fluorescence intensity (a.u.); “CGCGTGAATGGGCGGGCTACCTTTCTAGTTGTACTAAATCCGGAGTCACCTAGTGCAG”: 9650 fluorescence intensity (a.u.). In the case of “CGCTCCACATAGGCTAGGCCCATGTCCCTTAGAGGATCCTCGGAGTCACCTAGTGCAG”, the binding signal is 8380 fluorescence intensity (a.u.). With “GCGCAACTGGCAGATTCGTGGGGATTCGTGGGGATAATATCGGAGTCACCTAGTGCAG”, the binding signal was 10900 fluorescence intensity (a.u.). Take “GTATCCGTATAAGACATGGTATGTGGTGGGTTCTGCCAAGCGGAGTCACCTAGTGCAG”: the binding signal was 8040 fluorescence intensity (a.u.).

On to “ATACCTTCCACTTCCCGGCCCCGCCGCCGTTCCTGCCCCTCGGAGTCACCTAGTGCAG”, for which the binding signal was 9050 fluorescence intensity (a.u.). Next, “AAAATTCTTATTACGTGGGCGGTGGGCTAACATGCTTTAACGGAGTCACCTAGTGCAG”: 9900 fluorescence intensity (a.u.).

In the case of “TATATATATATATATATATATATAAAGAACACACAAAAAACGGAGTCACCTAGTGCAG”, the binding signal is 8150 fluorescence intensity (a.u.).

Take “AGGCATTAGTTACCTGGTTTTGCGATTGAGTATATGAATCCGGAGTCACCTAGTGCAG”: the binding signal is 9400 fluorescence intensity (a.u.). To “GCAACATCGCGGTCAAGCTACCGGACAACTCGACCGACCACGGAGTCACCTAGTGCAG” belongs 8430 fluorescence intensity (a.u.). Next, “TCCCTATCAGCTCAGGTCTCTCTCGATCTCTCCTAGCTAGCGGAGTCACCTAGTGCAG”: 9650 fluorescence intensity (a.u.); “GCTGTGTGAACTTCTTTTTTCGTGACAAGTTTAATTCTTTCGGAGTCACCTAGTGCAG”: 12400 fluorescence intensity (a.u.); “AGCCACAACCCGCTGGCCAAATCGCTTGCGCTCTATCGCACGGAGTCACCTAGTGCAG”: 8240 fluorescence intensity (a.u.). On to “TAGCCATCGCCACCACCACCGCCACCGCCACCGCCACGCTCGGAGTCACCTAGTGCAG”, for which the binding signal is 8660 fluorescence intensity (a.u.). Next, “TACTCGCTTCGTCCCACACGAAGATTTCATTTTTCAGTTTCGGAGTCACCTAGTGCAG”: 9060 fluorescence intensity (a.u.); “ACCGTGTTGCTGCCTGGTGCTCGCTTTGTTCGTAGGCCTTCGGAGTCACCTAGTGCAG”: 8520 fluorescence intensity (a.u.).

Regarding “AAGTGTCTTCCTGCTGATATCTCCCATCTGTCCCCTATTGCGGAGTCACCTAGTGCAG”, the binding signal was 8460 fluorescence intensity (a.u.). To “GAGTCATAGTAGTGTAGTAGTGGGTCAACTCAGTCAAGTCCGGAGTCACCTAGTGCAG” belongs 8290 fluorescence intensity (a.u.); to “CTTCTCTCTCTCTGCATCCAGCCGATATATATACCACCAGCGGAGTCACCTAGTGCAG”, 10100 fluorescence intensity (a.u.); to “TCTTCCTCAGATACTGATTGCCATTGTTTTGCAGGTCTCTCGGAGTCACCTAGTGCAG”, 10700 fluorescence intensity (a.u.).

“CATGCCCAATACCTCACATGATTATTTTGTTCACATCGTACGGAGTCACCTAGTGCAG”: the binding signal is 13500 fluorescence intensity (a.u.).

On to “TTCATTTTGTTGGCTAGAGTGTAGTTTGGATTTTGATGGCCGGAGTCACCTAGTGCAG”, for which the binding signal was 8180 fluorescence intensity (a.u.). Next, “GGTTTCTTCTCATTCTTCTTTTTTTCCTTTTTTCTACACGCGGAGTCACCTAGTGCAG”: 14000 fluorescence intensity (a.u.); “ATTTCCCACCCAATCTCCCGGCCTGCTTCCTTCACACGAGCGGAGTCACCTAGTGCAG”: 8040 fluorescence intensity (a.u.). Next, “AAGTTTATTTTTCACCCATTCTACACATACCCATACAAAACGGAGTCACCTAGTGCAG”: 8240 fluorescence intensity (a.u.). In the case of “GACTAATAGCTTCAGTTTTGCATGCGATGGCCACTCAAATCGGAGTCACCTAGTGCAG”, the binding signal is 10100 fluorescence intensity (a.u.). To “CGCAGAACACGTTTCCCAAATCTTGTACTACTACGTACTACGGAGTCACCTAGTGCAG” belongs 9170 fluorescence intensity (a.u.). To “CTCCATACCGCCGGCCTCTATAGGCGCCGCACATGTCATCCGGAGTCACCTAGTGCAG” belongs 9690 fluorescence intensity (a.u.). Next, “ACTAATAATGAAAATTTCCACACCCTTGCTTTTCTAATTTCGGAGTCACCTAGTGCAG”: 9150 fluorescence intensity (a.u.).

For the sequence “CTCCACCGCCGCCGCCGCCGACGACGTCGCCGCCGTTCCCCGGAGTCACCTAGTGCAG”, the binding signal was 8710 fluorescence intensity (a.u.). To “AGTCAATATCTTGCTTTGATACCTTTTTTTTTGCATTTTTCGGAGTCACCTAGTGCAG” belongs 8050 fluorescence intensity (a.u.).
